Measured values: the supplement of paper PMC12819154, “High-throughput peptide-centric local stability assay extends protein–ligand identification to membrane proteins, tissues and bacteria” (Nature Structural & Molecular Biology, 2025)
The list shows a part of the results. Most values lie at the level of the controls, where differences are scatter.

By UniProt entry, the sequences of proteins in these tests, tags left out. Where a name states a change or a piece, a line headed by the entry shows the natural chain unless it says otherwise.
UniProt Q9BRF8, whole entry: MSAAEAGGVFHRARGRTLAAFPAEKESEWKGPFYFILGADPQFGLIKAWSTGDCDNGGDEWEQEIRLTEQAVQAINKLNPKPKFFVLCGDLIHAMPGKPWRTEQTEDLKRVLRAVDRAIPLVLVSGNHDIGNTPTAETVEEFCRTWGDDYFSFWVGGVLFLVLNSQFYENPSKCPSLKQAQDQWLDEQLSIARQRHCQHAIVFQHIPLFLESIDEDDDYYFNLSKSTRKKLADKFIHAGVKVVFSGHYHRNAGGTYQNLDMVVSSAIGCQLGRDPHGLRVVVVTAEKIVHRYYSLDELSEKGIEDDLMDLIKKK
UniProt Q9BTE7: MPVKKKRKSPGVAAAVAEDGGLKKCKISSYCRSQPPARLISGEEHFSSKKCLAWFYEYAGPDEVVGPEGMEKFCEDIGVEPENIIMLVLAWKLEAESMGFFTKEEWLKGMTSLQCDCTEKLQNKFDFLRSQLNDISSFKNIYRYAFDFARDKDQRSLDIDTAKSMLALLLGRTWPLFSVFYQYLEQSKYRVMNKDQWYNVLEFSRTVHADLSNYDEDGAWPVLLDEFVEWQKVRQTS
UniProt Q9BU64: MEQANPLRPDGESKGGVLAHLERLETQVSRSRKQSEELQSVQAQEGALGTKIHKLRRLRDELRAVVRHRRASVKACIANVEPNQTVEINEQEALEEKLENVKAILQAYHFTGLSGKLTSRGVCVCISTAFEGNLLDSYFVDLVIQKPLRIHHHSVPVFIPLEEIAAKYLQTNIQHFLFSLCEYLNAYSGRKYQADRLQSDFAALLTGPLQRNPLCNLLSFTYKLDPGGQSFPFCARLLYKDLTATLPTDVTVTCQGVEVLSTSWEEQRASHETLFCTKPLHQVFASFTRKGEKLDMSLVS
UniProt Q9BSI4: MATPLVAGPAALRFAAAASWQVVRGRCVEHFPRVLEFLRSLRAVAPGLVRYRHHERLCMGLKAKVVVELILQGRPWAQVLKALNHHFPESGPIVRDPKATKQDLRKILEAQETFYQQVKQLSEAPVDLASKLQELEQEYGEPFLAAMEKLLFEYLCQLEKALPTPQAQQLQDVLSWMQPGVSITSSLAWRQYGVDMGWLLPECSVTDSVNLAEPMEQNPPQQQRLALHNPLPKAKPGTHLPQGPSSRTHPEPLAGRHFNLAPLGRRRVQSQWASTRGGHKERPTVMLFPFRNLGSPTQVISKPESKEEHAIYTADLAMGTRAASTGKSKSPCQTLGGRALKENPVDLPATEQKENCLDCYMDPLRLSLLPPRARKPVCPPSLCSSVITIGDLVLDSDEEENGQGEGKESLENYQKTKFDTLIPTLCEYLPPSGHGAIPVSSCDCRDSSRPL
UniProt Q9BUE6: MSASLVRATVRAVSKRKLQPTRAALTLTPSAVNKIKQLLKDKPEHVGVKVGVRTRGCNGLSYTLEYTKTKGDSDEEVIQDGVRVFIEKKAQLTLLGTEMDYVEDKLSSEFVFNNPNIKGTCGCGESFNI
UniProt Q99439: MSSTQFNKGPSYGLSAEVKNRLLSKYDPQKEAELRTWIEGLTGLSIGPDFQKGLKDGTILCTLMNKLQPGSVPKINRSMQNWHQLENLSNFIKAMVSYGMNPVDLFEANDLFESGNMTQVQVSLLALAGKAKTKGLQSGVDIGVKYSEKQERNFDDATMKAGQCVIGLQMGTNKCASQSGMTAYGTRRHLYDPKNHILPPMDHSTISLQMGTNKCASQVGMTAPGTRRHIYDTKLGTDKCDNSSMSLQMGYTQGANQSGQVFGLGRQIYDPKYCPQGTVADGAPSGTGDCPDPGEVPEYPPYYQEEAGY
UniProt Q99417: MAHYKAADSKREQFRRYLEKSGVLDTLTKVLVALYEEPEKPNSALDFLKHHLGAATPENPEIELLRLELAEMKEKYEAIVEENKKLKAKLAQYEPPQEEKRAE
UniProt Q99502: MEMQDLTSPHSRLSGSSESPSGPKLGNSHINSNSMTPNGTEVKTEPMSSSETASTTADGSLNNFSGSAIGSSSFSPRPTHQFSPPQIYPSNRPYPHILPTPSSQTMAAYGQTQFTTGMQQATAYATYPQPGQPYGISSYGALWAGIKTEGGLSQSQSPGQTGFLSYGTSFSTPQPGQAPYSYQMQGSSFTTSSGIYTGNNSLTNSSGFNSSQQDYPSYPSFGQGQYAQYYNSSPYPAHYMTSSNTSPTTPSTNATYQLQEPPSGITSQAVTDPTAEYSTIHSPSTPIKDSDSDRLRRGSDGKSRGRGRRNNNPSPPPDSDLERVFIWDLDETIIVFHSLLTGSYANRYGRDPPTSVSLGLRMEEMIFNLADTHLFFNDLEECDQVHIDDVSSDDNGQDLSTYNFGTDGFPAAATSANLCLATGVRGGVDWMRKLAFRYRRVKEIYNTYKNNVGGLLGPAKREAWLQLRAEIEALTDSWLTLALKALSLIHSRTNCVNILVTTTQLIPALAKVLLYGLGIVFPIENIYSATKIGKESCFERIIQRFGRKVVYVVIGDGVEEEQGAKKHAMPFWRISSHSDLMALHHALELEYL
UniProt Q9BTA9: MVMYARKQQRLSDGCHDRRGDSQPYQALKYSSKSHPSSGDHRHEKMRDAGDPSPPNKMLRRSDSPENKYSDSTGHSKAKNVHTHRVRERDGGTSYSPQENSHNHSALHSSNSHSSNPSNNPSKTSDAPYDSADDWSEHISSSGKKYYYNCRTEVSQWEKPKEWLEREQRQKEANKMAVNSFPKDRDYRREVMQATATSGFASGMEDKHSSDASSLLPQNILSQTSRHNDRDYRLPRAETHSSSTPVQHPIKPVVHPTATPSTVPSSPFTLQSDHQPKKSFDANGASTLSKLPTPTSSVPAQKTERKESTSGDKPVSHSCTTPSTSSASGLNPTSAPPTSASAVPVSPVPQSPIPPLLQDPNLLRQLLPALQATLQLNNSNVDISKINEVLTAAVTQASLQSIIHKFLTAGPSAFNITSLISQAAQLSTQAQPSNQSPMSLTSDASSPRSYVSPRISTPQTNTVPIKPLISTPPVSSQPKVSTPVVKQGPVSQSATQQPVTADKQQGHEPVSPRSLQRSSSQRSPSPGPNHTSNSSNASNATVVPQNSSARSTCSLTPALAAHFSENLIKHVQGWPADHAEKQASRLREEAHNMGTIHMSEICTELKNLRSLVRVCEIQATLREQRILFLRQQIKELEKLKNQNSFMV
UniProt Q9BUN8: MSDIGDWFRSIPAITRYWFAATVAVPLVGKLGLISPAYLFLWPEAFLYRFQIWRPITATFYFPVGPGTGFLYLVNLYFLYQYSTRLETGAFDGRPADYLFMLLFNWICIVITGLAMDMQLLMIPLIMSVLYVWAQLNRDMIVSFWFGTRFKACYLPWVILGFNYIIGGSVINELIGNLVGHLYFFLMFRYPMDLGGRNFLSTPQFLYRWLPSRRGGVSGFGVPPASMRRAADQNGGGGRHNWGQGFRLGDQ
UniProt Q9BTZ2: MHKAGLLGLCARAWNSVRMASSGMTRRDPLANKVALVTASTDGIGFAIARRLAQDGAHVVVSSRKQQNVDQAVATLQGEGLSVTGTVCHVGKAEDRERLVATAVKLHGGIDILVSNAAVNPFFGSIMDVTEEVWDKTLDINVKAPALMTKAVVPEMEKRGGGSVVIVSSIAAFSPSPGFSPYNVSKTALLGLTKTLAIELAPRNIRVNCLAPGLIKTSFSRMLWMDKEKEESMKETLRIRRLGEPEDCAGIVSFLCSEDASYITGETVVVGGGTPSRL
UniProt Q9BPZ7, whole entry: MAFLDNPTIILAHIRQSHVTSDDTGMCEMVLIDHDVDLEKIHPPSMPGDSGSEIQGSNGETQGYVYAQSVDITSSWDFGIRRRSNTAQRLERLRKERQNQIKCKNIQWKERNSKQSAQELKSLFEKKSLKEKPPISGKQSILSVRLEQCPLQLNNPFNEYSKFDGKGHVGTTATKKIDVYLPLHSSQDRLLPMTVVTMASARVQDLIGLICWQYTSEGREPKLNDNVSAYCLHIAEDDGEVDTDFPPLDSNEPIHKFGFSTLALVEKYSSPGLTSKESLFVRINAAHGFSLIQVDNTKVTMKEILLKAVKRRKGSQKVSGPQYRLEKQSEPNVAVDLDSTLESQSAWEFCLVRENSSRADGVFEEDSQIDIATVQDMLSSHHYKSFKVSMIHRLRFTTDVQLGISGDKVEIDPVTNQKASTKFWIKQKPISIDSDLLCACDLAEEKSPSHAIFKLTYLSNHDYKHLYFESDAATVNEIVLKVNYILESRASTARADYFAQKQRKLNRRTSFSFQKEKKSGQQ
UniProt Q9BRR0: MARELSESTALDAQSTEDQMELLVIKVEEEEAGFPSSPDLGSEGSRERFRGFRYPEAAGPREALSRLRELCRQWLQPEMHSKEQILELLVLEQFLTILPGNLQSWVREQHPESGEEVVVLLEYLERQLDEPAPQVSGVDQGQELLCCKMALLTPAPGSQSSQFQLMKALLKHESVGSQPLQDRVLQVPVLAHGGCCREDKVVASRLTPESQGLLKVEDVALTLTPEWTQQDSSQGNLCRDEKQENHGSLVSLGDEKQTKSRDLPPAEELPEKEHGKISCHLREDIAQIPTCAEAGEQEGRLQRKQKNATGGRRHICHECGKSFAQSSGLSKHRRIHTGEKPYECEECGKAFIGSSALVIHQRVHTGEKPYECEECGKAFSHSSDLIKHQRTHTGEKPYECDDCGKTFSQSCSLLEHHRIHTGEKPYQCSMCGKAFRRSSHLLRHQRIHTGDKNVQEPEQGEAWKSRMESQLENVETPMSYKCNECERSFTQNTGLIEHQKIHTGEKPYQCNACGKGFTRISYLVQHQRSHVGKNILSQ
UniProt Q9BSF8: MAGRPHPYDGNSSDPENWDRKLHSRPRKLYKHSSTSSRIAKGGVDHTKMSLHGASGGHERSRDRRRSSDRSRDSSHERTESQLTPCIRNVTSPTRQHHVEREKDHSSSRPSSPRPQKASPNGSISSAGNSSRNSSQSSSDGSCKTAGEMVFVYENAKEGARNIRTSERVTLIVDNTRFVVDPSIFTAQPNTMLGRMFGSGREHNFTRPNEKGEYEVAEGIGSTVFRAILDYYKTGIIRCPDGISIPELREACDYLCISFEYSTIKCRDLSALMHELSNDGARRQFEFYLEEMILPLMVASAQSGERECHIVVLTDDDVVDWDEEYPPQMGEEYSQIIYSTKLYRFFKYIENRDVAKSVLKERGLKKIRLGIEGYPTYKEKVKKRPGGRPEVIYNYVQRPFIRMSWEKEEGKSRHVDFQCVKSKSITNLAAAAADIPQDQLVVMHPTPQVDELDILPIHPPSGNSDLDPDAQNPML
UniProt Q9BQ52: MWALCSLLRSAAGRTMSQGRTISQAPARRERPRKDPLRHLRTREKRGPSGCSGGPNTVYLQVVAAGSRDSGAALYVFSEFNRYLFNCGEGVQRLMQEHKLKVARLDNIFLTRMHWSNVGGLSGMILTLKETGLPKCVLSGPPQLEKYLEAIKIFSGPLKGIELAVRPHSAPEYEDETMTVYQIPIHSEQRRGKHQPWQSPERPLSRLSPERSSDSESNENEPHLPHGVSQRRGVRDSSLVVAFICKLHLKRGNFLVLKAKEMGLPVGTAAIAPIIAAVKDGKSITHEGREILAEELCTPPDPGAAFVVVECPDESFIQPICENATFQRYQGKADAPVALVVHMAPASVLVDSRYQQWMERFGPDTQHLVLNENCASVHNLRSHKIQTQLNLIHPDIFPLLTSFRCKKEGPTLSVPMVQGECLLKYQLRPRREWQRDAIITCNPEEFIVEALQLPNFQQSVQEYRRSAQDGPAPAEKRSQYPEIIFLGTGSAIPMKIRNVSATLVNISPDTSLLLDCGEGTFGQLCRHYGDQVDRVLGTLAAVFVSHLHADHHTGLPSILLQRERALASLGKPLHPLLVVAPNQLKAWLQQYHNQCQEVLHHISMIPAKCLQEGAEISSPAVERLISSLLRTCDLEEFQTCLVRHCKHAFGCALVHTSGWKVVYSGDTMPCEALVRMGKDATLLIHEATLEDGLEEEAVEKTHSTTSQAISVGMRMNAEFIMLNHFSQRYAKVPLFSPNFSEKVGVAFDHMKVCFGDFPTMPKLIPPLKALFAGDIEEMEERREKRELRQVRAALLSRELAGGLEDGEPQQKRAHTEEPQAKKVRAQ
UniProt Q99759: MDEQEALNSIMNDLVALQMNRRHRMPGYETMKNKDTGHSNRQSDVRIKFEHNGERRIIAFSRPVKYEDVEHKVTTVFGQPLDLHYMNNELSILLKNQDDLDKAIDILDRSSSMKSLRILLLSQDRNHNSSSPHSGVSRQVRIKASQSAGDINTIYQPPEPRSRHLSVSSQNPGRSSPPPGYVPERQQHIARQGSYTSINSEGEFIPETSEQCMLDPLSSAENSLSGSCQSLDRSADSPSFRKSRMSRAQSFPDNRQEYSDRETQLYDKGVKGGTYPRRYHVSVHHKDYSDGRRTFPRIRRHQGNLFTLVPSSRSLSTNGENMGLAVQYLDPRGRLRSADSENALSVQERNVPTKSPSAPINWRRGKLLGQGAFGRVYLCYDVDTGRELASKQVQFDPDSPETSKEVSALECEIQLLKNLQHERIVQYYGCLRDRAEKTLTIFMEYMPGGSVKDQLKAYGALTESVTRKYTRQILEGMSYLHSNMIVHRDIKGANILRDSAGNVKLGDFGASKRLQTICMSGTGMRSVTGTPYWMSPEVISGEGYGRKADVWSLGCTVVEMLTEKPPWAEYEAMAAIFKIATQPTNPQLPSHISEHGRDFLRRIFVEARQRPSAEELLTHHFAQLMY

What follows are targets tested with Cc1nc(Nc2ncc(C(=O)Nc3c(C)cccc3Cl)s2)cc(N2CCN(CCO)CC2)n1 [dasatinib] (assay: log2 fold change of tryptic peptide abundance, ligand vs vehicle (limited proteolysis) (log2 ratio); higher = more trypsin-susceptible (destabilized)). Conditions: ligand concentration: 5 uM; sample: K562 cleared lysate.
“CPPED1 (peptide sequence: LTEQAVQAINK, peptide start residue: 67) (UniProt Q9BRF8)” was tested, and the log2 fold change was 0.781.
With “DCUN1D5 (peptide sequence: SMLALLLGR, peptide start residue: 164) (UniProt Q9BTE7)” the log2 fold change was -0.379.
Work on “CENPO (peptide sequence: GGVLAHLER, peptide start residue: 15) (UniProt Q9BU64)” yielded a log2 fold change of 0.0152.
Target “VPS25 (peptide sequence: RPEEWGK, peptide start residue: 103) (UniProt Q9BRG1)” has a log2 fold change of -0.533.
“UniProt Q9BSI4 (peptide sequence: AKPGTHLPQGPSSR, peptide start residue: 234)” showed a log2 fold change of -0.345.
Work on “UniProt Q9BT25 (peptide sequence: TISKKPESTSFSAPR, peptide start residue: 122)” yielded a log2 fold change of -0.156.
In the case of “VAT1 (peptide sequence: CLVLTGFGGYDKVK, peptide start residue: 50) (UniProt Q99536)”, the log2 fold change is reported as -0.176.
“ISCA1 (peptide sequence: TKGDSDEEVIQDGVR, peptide start residue: 69) (UniProt Q9BUE6)” showed a log2 fold change of 0.252.
Work on “CNN2 (peptide sequence: CASQVGMTAPGTRR, peptide start residue: 215) (UniProt Q99439)” yielded a log2 fold change of -0.0942.
“MYCBP (peptide sequence: LAQYEPPQEEKR, peptide start residue: 90) (UniProt Q99417)” gave a log2 fold change of 0.701.
“PRPF18 (peptide sequence: KIEILTPEVNK, peptide start residue: 111) (UniProt Q99633)” gave a log2 fold change of -0.581.
Work on “PIMREG (peptide sequence: IQESCQSGTK, peptide start residue: 100) (UniProt Q9BSJ6)” yielded a log2 fold change of -0.572.
“UniProt Q99502 (peptide sequence: IGKESCFER, peptide start residue: 513)” gave a log2 fold change of 0.193.
For “GINS4 (peptide sequence: FFPHVLEK, peptide start residue: 103) (UniProt Q9BRT9)”, the log2 fold change was 0.515.
“SRPK1 (peptide sequence: IIHTDIKPENILLSVNEQYIR, peptide start residue: 209) (UniProt Q96SB4)” gave a log2 fold change of 0.185.
Target “WAC (peptide sequence: TEVSQWEKPK, peptide start residue: 152) (UniProt Q9BTA9)” has a log2 fold change of 0.678.
In the case of “UTP23 (peptide sequence: ISGPNPLSCLK, peptide start residue: 199) (UniProt Q9BRU9)”, the log2 fold change is reported as 0.199.
For “DERL1 (peptide sequence: HNWGQGFR, peptide start residue: 240) (UniProt Q9BUN8)”, the log2 fold change was -0.0763.
With “ANP32E (peptide sequence: KKINLELR, peptide start residue: 5) (UniProt Q9BTT0)” the log2 fold change was -0.108.
“UniProt Q99973 (peptide sequence: NQCLATLPDLK, peptide start residue: 49)” was tested, and the log2 fold change was -0.905.
“COPS4 (peptide sequence: EALPTWDK, peptide start residue: 365) (UniProt Q9BT78)” gave a log2 fold change of -0.343.
“DHRS4 (peptide sequence: MLWMDKEKEESMK, peptide start residue: 222) (UniProt Q9BTZ2)” was tested, and the log2 fold change was -0.169.
“UniProt Q96SY0 (peptide sequence: HSLATQNQR, peptide start residue: 128)” gave a log2 fold change of -0.0254.
For “CABLES2 (peptide sequence: FLYPTNALVTHK, peptide start residue: 245) (UniProt Q9BTV7)”, the log2 fold change was 0.11.
With “SMAD5 (peptide sequence: IPSSCSLK, peptide start residue: 374) (UniProt Q99717)” the log2 fold change was -0.211.
Work on “MAPKAP1 (peptide sequence: INAAHGFSLIQVDNTK, peptide start residue: 283) (UniProt Q9BPZ7)” yielded a log2 fold change of 0.123.
“UniProt Q99909 (peptide sequence: GNQVQRPQMTFGR, peptide start residue: 91)” gave a log2 fold change of 0.525.
“NABP2 (peptide sequence: GCLTLYTGR, peptide start residue: 80) (UniProt Q9BQ15)” gave a log2 fold change of -0.217.
In the case of “PRMT1 (peptide sequence: LDHVVTIIK, peptide start residue: 135) (UniProt Q99873)”, the log2 fold change is reported as 0.566.
“ZKSCAN3 (peptide sequence: QENHGSLVSLGDEK, peptide start residue: 243) (UniProt Q9BRR0)” gave a log2 fold change of 0.117.
“BTBD10 (peptide sequence: AILDYYK, peptide start residue: 227) (UniProt Q9BSF8)” was tested, and the log2 fold change was 0.107.
Work on “UniProt Q9BRX9 (peptide sequence: VSDHEILAGSVDGR, peptide start residue: 161)” yielded a log2 fold change of -0.0363.
Work on “ELAC2 (peptide sequence: LDNIFLTR, peptide start residue: 105) (UniProt Q9BQ52)” yielded a log2 fold change of -0.201.
For “UniProt Q9BRT2 (peptide sequence: LCEEWPVDETKR, peptide start residue: 12)”, the log2 fold change was -0.66.
Work on “CCNL2 (peptide sequence: GSKPSPLSVK, peptide start residue: 344) (UniProt Q96S94)” yielded a log2 fold change of 0.367.
“PIP5K1A (peptide sequence: FMCNTVFK, peptide start residue: 444) (UniProt Q99755)” showed a log2 fold change of 0.244.
“UniProt Q99759 (peptide sequence: HLSVSSQNPGR, peptide start residue: 164)” gave a log2 fold change of 0.548.
